Test results: patent US6967100B2, “Pancreatic islet cell growth factors” (The Walter and Eliza Hall Institute of Medical Research, priority 2000, dated 2005)
For at least one compound, name, drawing or mass did not settle the structure.

Test system: 13.5 dpc fetal mouse pancreas cells
Experiment: Low cell density serum-free culture of 13.5 dpc fetal mouse pancreatic cells: total and insulin-positive β cell number
Assay type: cell-based
Conditions: for β cell number without laminin-1: agent alone, no laminin-1; for total and β cell numbers: with laminin-1, four days, inhibitor 0.1-100 μM, dose-dependent
Method: Dissociated fetal pancreas cells were prepared from 13.5 dpc CBA mice. Pregnant mice at 13.5 dpc were killed by cervical dislocation and fetuses collected into ice cold sterile mouse tonicity phosphate-buffered saline (MTPBS). Fetal pancreata were harvested under an Olympus dissection microscope into RPMI 1640 medium and dissociated in a shaking water bath at 37° C. for 11 mins in Ca^2+/Mg^2+-free PBS containing 0.5% v/v trypsin/EDTA as described for testis by Bucci et al. (1986). After dissociation, trypsin was inactivated by addition of 8% w/v bovine serum albumin (BSA, fraction V) (Sigma, St. Louis, USA). The tissue was aspirated several times in a pipette, passed through a 27 gauge needle to make a single cell suspension and then rinsed in 10 μg/ml DNAse I (Promega, Madison, USA) in RPMI 1640 for 10 mins to reduce cellular aggregates. Cell suspensions were filtered through a 70-100 μm steel mesh, centrifuged at 400×g for 5 mins and the supernatant discarded. The cell pellet was resuspended in HYBRIDOMA medium and stored on ice. Cells were counted under a haemocytometer and viability was determined by exclusion of 0.2% v/v trypan blue dye. Pancreatic cells were plated in 8 chamber slides (Nunc) at 1.5×10^4 cells/well in 0.3 ml HYBRIDOMA medium 500 UI/ml penicillin and 500 μg/ml streptomycin. The cells were cultured in 10% v/v CO2, 90% v/v air at 37° C. with 100% humidity for four days in the presence of factors such as laminin-1 and BMPs.
Fetuses at 15.5 and 18.5 dpc from homozygous (−/−) or heterozygous (+/−) α6 integrin gene targeted (Georges-Labouesse et al., 1996) or wild type mice were fixed overnight in Bouin ? s solution. After standard dehydration processing, fetuses were embedded into paraffin and sectioned at 7 μm. Cultured pancreatic cells were washed three times with warm mouse tonicity phosphate buffered saline (MT-PBS) and fixed with 4% paraformaldehyde (PFA) for 10 mins. Endogenous peroxidase was blocked by 3% v/v H2O2 in methanol for 8 mins. Prior to antibody staining, non-specific protein binding was blocked by incubation for at least 30 mins with MT-PBS containing 2% w/v bovine serum albumin or 2% v/v normal rabbit serum. Controls were performed by replacing first antibody with pre-immune serum from the appropriate species. Cell were incubated with primary antibodies for 90 mins at room temperature, followed by three thorough washes with MT-PBS. […] Immunoperoxidase was detected with 3,3′-diamninobenzidine/H2O2 for 4-8 mins, and slides were counterstained with haematoxylin.
Immunoperoxidase positive and negative cells were quantitated in the central strip of each culture chamber (a 90×90 mm square) under a microscope equipped with an eyepiece graticule (Olympus, Japan) at ×40 power and calibrated with a micrometer (Olympus). […]

SMILES | β cell number without laminin-1 | total and β cell numbers
O=c1cc(N2CCOCC2)oc2c(-c3ccccc3)cccc12 [Ly294002] | not affected | significantly increased
COC[C@H]1OC(=O)c2coc3c2[C@@]1(C)C1=C(C3=O)[C@@H]2CCC(=O)[C@@]2(C)C[C@H]1OC(C)=O [Wortmannin] | not affected | significantly increased
